# Measurements: the supplement of paper PMC4604168 (melanoma cell lines)
# The other results are listed elsewhere or left out. Repeats are few or missing, and single values can be far off.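 Cells were imaged in 1,536-well plates, and nuclei stained with an antibody against cleaved PARP were counted against all DNA-stained nuclei to give the apoptosis fraction. Screening doses were chosen to leave most cells alive, and resting and induced cleaved-PARP levels differ strongly between cell lines.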
# Tests used:
# Assay in all cases: cleaved PARP positive nuclei fraction relative to DMSO control; melanoma cells; higher = more apoptosis
# Settings in all cases: library dose: low library concentration; 72 h
# [1] = system: 501Mel
# [2] = system: A101D
# [3] = system: A2058
# [4] = system: C32
# [5] = system: CBRC008 (line from a melanoma biopsy)
# [6] = system: CBRC014 (line from a melanoma biopsy)
# [7] = system: CBRC016 (line from a melanoma biopsy)
# [8] = system: CBRC017 (line from a melanoma biopsy)
# [9] = system: A375
# [10] = system: CBRC013 (line from a melanoma biopsy)
SMILES,cleaved PARP positive nuclei fraction [1] [%],cleaved PARP positive nuclei fraction [2] [%],cleaved PARP positive nuclei fraction [3] [%],cleaved PARP positive nuclei fraction [4] [%],cleaved PARP positive nuclei fraction [5] [%],cleaved PARP positive nuclei fraction [6] [%],cleaved PARP positive nuclei fraction [7] [%],cleaved PARP positive nuclei fraction [8] [%],cleaved PARP positive nuclei fraction [9] [%],cleaved PARP positive nuclei fraction [10] [%]
"Cc1cn(-c2cc(NC(=O)c3ccc(C)c(Nc4nccc(-c5cccnc5)n4)c3)cc(C(F)(F)F)c2)cn1 [nilotinib] + COC(=O)c1sccc1S(=O)(=O)Nc1ccc(Nc2ccccc2)cc1OC [GSK0660] (first compound 0.2 µM, partner dose 1 µM)",51.6,13.9,80.3,78.8,63.3,93.7,41.2,185,,
"CC[C@]1(O)C[C@H]2CN(CCc3c([nH]c4ccccc34)[C@@](C(=O)OC)(c3cc4c(cc3OC)N(C=O)[C@H]3[C@@](O)(C(=O)OC)[C@H](OC(C)=O)[C@]5(CC)C=CCN6CC[C@]43[C@@H]65)C2)C1 [vincristine] + COc1ccc(COc2ccc(Cc3cnc(N)nc3N)cc2OC)cc1 [GW2580] (first compound 0.0001 µM, partner dose 1 µM)",75.8,29.9,65.5,92.2,95.9,75.9,20.9,113,,
"N#CC[C@H](C1CCCC1)n1cc(-c2ncnc3[nH]ccc23)cn1 [ruxolitinib] + Oc1nc(-c2ccc(C(F)(F)F)cc2)nc2c1CSCC2 [XAV939] (first compound 1 µM, partner dose 2 µM)",127,6.52,157,181,74.5,85.3,248,127,,
"Cc1cc(Nc2cc(N3CCN(C)CC3)nc(Sc3ccc(NC(=O)C4CC4)cc3)n2)n[nH]1 [Tozasertib] + Cc1cc(N2CCOCC2)cc2[nH]c(-c3c(NC[C@@H](O)c4cccc(Cl)c4)cc[nH]c3=O)nc12 [BMS536924] (first compound 0.006 µM, partner dose 0.2 µM)",,168,90.7,132,273,81.1,89.6,81,77.4,112
"Cc1ccc(Nc2nccc(N(C)c3ccc4c(C)n(C)nc4c3)n2)cc1S(N)(=O)=O [Pazopanib] + COc1ccc(-c2ccc3c(N4CCOCC4)nc(N4C[C@@H](C)O[C@@H](C)C4)nc3n2)cc1CO [KU0063794] (first compound 0.4 µM, partner dose 0.02 µM)",79.9,56.9,54.1,52.1,322,93.6,119,111,,
"O=C(Nc1cc(C(F)(F)F)cc(C(F)(F)F)c1)c1cc(Cl)ccc1O + CC(=O)O[C@@]12CO[C@@H]1C[C@H](O)[C@@]1(C)C(=O)[C@H](O)C3=C(C)[C@@H](OC(=O)[C@H](O)[C@@H](NC(=O)OC(C)(C)C)c4ccccc4)C[C@@](O)([C@@H](OC(=O)c4ccccc4)[C@H]21)C3(C)C [Docetaxel] (first compound 0.016 µM, partner dose 0.0001 µM)",,54.5,2210,244,481,131,216,183,1100,
"O=c1[nH]nc(Sc2ncc([N+](=O)[O-])s2)n1-c1ccc2c(c1)OCCO2 + COc1ccc2c(c1)CCC1C2CCC2(C)C(NCCCCCCN3C(=O)C=CC3=O)CCC12 [U73122] (first compound 0.2 µM, partner dose 0.4 µM)",63.8,14,75.4,44.1,54.2,88,160,87.6,,
"CCCCCCCCCCCCCCCCCCOP(=O)([O-])OC1CC[N+](C)(C)CC1 [Perifosine] + CCc1ccc(CCOc2ccc(CC3SC(=O)NC3=O)cc2)nc1 [pioglitazone] (first compound 0.4 µM, partner dose 2 µM)",106,9.81,291,174,114,265,75.9,125,,
"O=C(/C=C/c1cccnc1)NCCCCC1CCN(C(=O)c2ccccc2)CC1 + NCC(=O)Nc1ccc(-n2nc(C(F)(F)F)cc2-c2ccc3c(ccc4ccccc43)c2)cc1 [OSU03012] (first compound 0.01 µM, partner dose 1 µM)",,93.7,71.6,150,2800,108,294,417,7240,131
"CCCCCCCCCCCCCCCCCCOP(=O)([O-])OC1CC[N+](C)(C)CC1 [Perifosine] + O=C(Nc1ccccc1)c1cc([N+](=O)[O-])ccc1Cl [GW9662] (first compound 0.4 µM, partner dose 2 µM)",70.2,31.7,323,66,75.5,891,93,87.7,,
"Cc1cn(-c2cc(NC(=O)c3ccc(C)c(Nc4nccc(-c5cccnc5)n4)c3)cc(C(F)(F)F)c2)cn1 [nilotinib] + CCCS(=O)(=O)Nc1ccc(F)c(C(=O)c2c[nH]c3ncc(Cl)cc23)c1F [PLX4720] (first compound 0.2 µM, partner dose 0.08 µM)",,161,188,172,95.4,109,108,112,271,
"Cc1cc(Nc2cc(N3CCN(C)CC3)nc(Sc3ccc(NC(=O)C4CC4)cc3)n2)n[nH]1 [Tozasertib] + CC(C)CCN1c2nc(Nc3cc(F)c(O)c(F)c3)ncc2N(C)C(=O)C1C [BID1870] (first compound 0.006 µM, partner dose 0.2 µM)",,93.1,51,108,128,102,65.2,76.3,,
"COc1cc([C@@H]2c3cc4c(cc3[C@@H](O[C@@H]3O[C@@H]5CO[C@@H](C)O[C@H]5[C@H](O)[C@H]3O)[C@H]3COC(=O)[C@H]23)OCO4)cc(OC)c1O [etoposide] + O=C(/C=C/c1cccnc1)NCCCCC1CCN(C(=O)c2ccccc2)CC1 [FK866] (first compound 0.02 µM, partner dose 0.01 µM)",,98.8,304,74.7,2770,122,536,475,130,
"O=C(Nc1cc(C(F)(F)F)cc(C(F)(F)F)c1)c1cc(Cl)ccc1O + Nc1ccn([C@@H]2O[C@H](CO)[C@@H](O)C2(F)F)c(=O)n1 [gemcitabine] (first compound 0.016 µM, partner dose 0.0004 µM)",,108,83.9,76.2,190,123,99.6,122,152,
"O=c1[nH]nc(Sc2ncc([N+](=O)[O-])s2)n1-c1ccc2c(c1)OCCO2 + OCc1c[nH]c2ccccc12 [Indole-3-carbinol] (first compound 0.2 µM, partner dose 0.8 µM)",,315,172,78.2,91.1,102,101,115,158,
"Cc1cc(Nc2cc(N3CCN(C)CC3)nc(Sc3ccc(NC(=O)C4CC4)cc3)n2)n[nH]1 [Tozasertib] + N#CC[C@H](C1CCCC1)n1cc(-c2ncnc3[nH]ccc23)cn1 [ruxolitinib] (first compound 0.006 µM, partner dose 1 µM)",,136,66.2,64.4,104,82.5,64.2,108,101,
"O=C(Nc1cc(C(F)(F)F)cc(C(F)(F)F)c1)c1cc(Cl)ccc1O + Cn1cc(/C=C2\C(=O)Nc3cccnc32)c2ccccc21 [GW441756] (first compound 0.016 µM, partner dose 0.4 µM)",,13.1,1380,174,63.8,88.6,32.5,81.6,,
"CC[C@]1(O)C[C@H]2CN(CCc3c([nH]c4ccccc34)[C@@](C(=O)OC)(c3cc4c(cc3OC)N(C=O)[C@H]3[C@@](O)(C(=O)OC)[C@H](OC(C)=O)[C@]5(CC)C=CCN6CC[C@]43[C@@H]65)C2)C1 [vincristine] + Nc1cccc2c1CN(C1CCC(=O)NC1=O)C2=O [lenalidomide] (first compound 0.0001 µM, partner dose 1 µM)",,137,388,102,117,96.4,130,101,126,
"O=C(/C=C/c1cccnc1)NCCCCC1CCN(C(=O)c2ccccc2)CC1 + Nc1nc(F)nc2c1ncn2[C@@H]1O[C@H](CO)[C@@H](O)[C@@H]1O [fludarabine] (first compound 0.01 µM, partner dose 0.2 µM)",,99.9,22.2,41.7,3960,217,903,496,3160,
"CC[C@]1(O)C[C@H]2CN(CCc3c([nH]c4ccccc34)[C@@](C(=O)OC)(c3cc4c(cc3OC)N(C=O)[C@H]3[C@@](O)(C(=O)OC)[C@H](OC(C)=O)[C@]5(CC)C=CCN6CC[C@]43[C@@H]65)C2)C1 [vincristine] + CC(=O)O[C@@]12CO[C@@H]1C[C@H](O)[C@@]1(C)C(=O)[C@H](O)C3=C(C)[C@@H](OC(=O)[C@H](O)[C@@H](NC(=O)OC(C)(C)C)c4ccccc4)C[C@@](O)([C@@H](OC(=O)c4ccccc4)[C@H]21)C3(C)C [Docetaxel] (first compound 0.0001 µM, partner dose 0.0001 µM)",,59.3,3090,175,229,155,381,177,890,
"O=C(Nc1cc(C(F)(F)F)cc(C(F)(F)F)c1)c1cc(Cl)ccc1O + COc1ccc2c(c1)CCC1C2CCC2(C)C(NCCCCCCN3C(=O)C=CC3=O)CCC12 [U73122] (first compound 0.016 µM, partner dose 0.4 µM)",,7.46,41.8,140,38.1,95.7,154,98.8,,
"CC[C@]1(O)C[C@H]2CN(CCc3c([nH]c4ccccc34)[C@@](C(=O)OC)(c3cc4c(cc3OC)N(C=O)[C@H]3[C@@](O)(C(=O)OC)[C@H](OC(C)=O)[C@]5(CC)C=CCN6CC[C@]43[C@@H]65)C2)C1 [vincristine] + O=C1NC(=O)/C(=C/c2ccc(-c3ccc(F)cc3O)o2)S1 [AS252424] (first compound 0.0001 µM, partner dose 1 µM)",,40,882,408,62.8,77.6,78.7,97.5,,

# Some of the entries so far, tab-delimited.
SMILES	cleaved PARP positive nuclei fraction [1] [%]	cleaved PARP positive nuclei fraction [2] [%]	cleaved PARP positive nuclei fraction [3] [%]	cleaved PARP positive nuclei fraction [4] [%]	cleaved PARP positive nuclei fraction [5] [%]	cleaved PARP positive nuclei fraction [6] [%]	cleaved PARP positive nuclei fraction [7] [%]	cleaved PARP positive nuclei fraction [8] [%]	cleaved PARP positive nuclei fraction [9] [%]	cleaved PARP positive nuclei fraction [10] [%]
O=c1[nH]nc(Sc2ncc([N+](=O)[O-])s2)n1-c1ccc2c(c1)OCCO2 + OCc1c[nH]c2ccccc12 [Indole-3-carbinol] (first compound 0.2 µM, partner dose 0.8 µM)		315	172	78.2	91.1	102	101	115	158	
Cc1cc(Nc2cc(N3CCN(C)CC3)nc(Sc3ccc(NC(=O)C4CC4)cc3)n2)n[nH]1 [Tozasertib] + N#CC[C@H](C1CCCC1)n1cc(-c2ncnc3[nH]ccc23)cn1 [ruxolitinib] (first compound 0.006 µM, partner dose 1 µM)		136	66.2	64.4	104	82.5	64.2	108	101	
